Source: publication PMC7819943, “Rice protein-binding microarrays: a tool to detect cis-acting elements near promoter regions in rice”
The list shows a part of the results.

Target: T1, OsSMF1 (Oryza sativa, UniProt Q6ZLB0 1-436)
T1 sequence: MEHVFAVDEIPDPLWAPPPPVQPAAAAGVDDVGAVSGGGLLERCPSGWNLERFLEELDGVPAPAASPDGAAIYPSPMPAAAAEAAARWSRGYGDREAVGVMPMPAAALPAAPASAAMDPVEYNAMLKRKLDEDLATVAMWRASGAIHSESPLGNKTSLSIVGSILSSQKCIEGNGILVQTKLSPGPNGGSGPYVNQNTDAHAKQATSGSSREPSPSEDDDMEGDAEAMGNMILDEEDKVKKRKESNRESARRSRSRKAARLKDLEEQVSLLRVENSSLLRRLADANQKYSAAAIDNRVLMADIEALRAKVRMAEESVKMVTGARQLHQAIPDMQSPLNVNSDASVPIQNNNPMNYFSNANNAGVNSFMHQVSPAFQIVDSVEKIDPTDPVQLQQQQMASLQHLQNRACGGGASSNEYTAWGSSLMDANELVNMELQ
Test: protein-binding microarray (RPBM); PBS, 2% BSA, 51.3 ng/ul salmon testes DNA, 50 uM zinc acetate, 200 nM TF, 25 C, 1 h; high values mean tight binding
Settings: protein: recombinant; tags: N-terminal polyhistidine and DsRed monomer fusion (pET32a); chain copies: 2; label: CyDye5-dUTP incorporated in the synthesized complementary strand; 3' TTTTT single-stranded linker to array surface; dsDNA, one strand shown
How it was run: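 An Axon 4000B scanner gave the binding signal as per-feature fluorescence intensity in arbitrary units. This followed washing of a custom Agilent array that had been incubated for 1 h at 25 °C with 200 nM protein in PBS, 2% BSA, salmon testes DNA and 50 µM zinc acetate. The proteins were transcription factors fused at the N-terminus to polyhistidine and DsRed, expressed in E. coli BL21-CodonPlus and purified on Ni–NTA.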

| Sequence | binding signal |
| --- | --- |
| GTGTTCGACGAAATGCCAACAAGGAACGTGGTGGCGTGGACGGAGTCACCTAGTGCAG | 3500 fluorescence intensity (a.u.) |
| TTGCTCTTGAGTCATCATCTGATCATATTCAATTCTTTATCGGAGTCACCTAGTGCAG | 7280 fluorescence intensity (a.u.) |
| TTGTGTAGTAAAGATCGCAAAATGACATGCCTGATAGTATCGGAGTCACCTAGTGCAG | 3490 fluorescence intensity (a.u.) |
| CTCCCTCCTCCTCCGTCTCCTCCTTTCATCTCTTCTTCTGCGGAGTCACCTAGTGCAG | 27700 fluorescence intensity (a.u.) |
| AATACGTCATGTAAGACTATGGACCACATCAGCTCACCACCGGAGTCACCTAGTGCAG | 5860 fluorescence intensity (a.u.) |
| GCGGGCTGGGCGGCCGCTCGGCGTGTCCACGTCGGATAGCCGGAGTCACCTAGTGCAG | 12000 fluorescence intensity (a.u.) |
| GCCGCGTGCAGCGGCGTGTCCACGTCCAGGAGCACCCTGTCGGAGTCACCTAGTGCAG | 3430 fluorescence intensity (a.u.) |
| GCGTGGAATGCGGATGATAGACGACGTACGCACGCGTGTGCGGAGTCACCTAGTGCAG | 3760 fluorescence intensity (a.u.) |
| GCATATATGCTTGCGTGCGCGCTTCATGCATGTCAATAACCGGAGTCACCTAGTGCAG | 3270 fluorescence intensity (a.u.) |
| TGAAGGCGGAGTAGGAGTTGTCCGCGACCACGCGCCTGAACGGAGTCACCTAGTGCAG | 19700 fluorescence intensity (a.u.) |
| CATGACGAGGATTAGGATCCCTGAGCTGGTGAGGGAGGCGCGGAGTCACCTAGTGCAG | 11500 fluorescence intensity (a.u.) |
| CTTCACGTCGACGCCGTCGGGCGCGCCCTGGACGAACACCCGGAGTCACCTAGTGCAG | 3310 fluorescence intensity (a.u.) |
| TGCCGGCCTCCACGTCGCCCTCCGCCTCCCTCCCCGCATTCGGAGTCACCTAGTGCAG | 7630 fluorescence intensity (a.u.) |
| TTAAACTACAACCATATGTTCAGTCTTCAGTGGCTGTCAGCGGAGTCACCTAGTGCAG | 3420 fluorescence intensity (a.u.) |
| CAGTATGGTGACATAGCCGTGGATGACACGGCATTCGTATCGGAGTCACCTAGTGCAG | 10400 fluorescence intensity (a.u.) |
| TGGTTGATTTCTATCCCTCACTGAATTGTCGACTTCTTGCCGGAGTCACCTAGTGCAG | 3840 fluorescence intensity (a.u.) |
| GCGGAGGTCAAGCGCCACGTAGAAGGGTCGACGTGGGGAGCGGAGTCACCTAGTGCAG | 7110 fluorescence intensity (a.u.) |
| GGACCTTGATGTCAAGGTACTTCCTCCGTTCTAAAATATACGGAGTCACCTAGTGCAG | 8540 fluorescence intensity (a.u.) |
| CTCCTCTGCGCTGCCGTTCCCCGTTATTCGCCAACGCTTCCGGAGTCACCTAGTGCAG | 3390 fluorescence intensity (a.u.) |
| CCAAACCATACAACGCACAATTAATTAGGGGAAACTGGACCGGAGTCACCTAGTGCAG | 11100 fluorescence intensity (a.u.) |
| ACTTGCAGAGTTGCAGTCGCGTGCGTCACGCGGCGAGGTGCGGAGTCACCTAGTGCAG | 5960 fluorescence intensity (a.u.) |
| ACTCTATGTGCTAATGTCATACCATCGTCAACACGATAGCCGGAGTCACCTAGTGCAG | 3920 fluorescence intensity (a.u.) |
| TGGATTGTTACATGTCTAAATTCATAATACCAGGATATATCGGAGTCACCTAGTGCAG | 21600 fluorescence intensity (a.u.) |
| CCACCGCGCAACGGATCGGCACCCGTTCCACGCGTCTACGCGGAGTCACCTAGTGCAG | 4160 fluorescence intensity (a.u.) |
| ACATGTCATAGACACATGTGGGTCCACATGTCATTGAGATCGGAGTCACCTAGTGCAG | 5720 fluorescence intensity (a.u.) |
| AACGGGGAGTAAATATTTTCCTAACAATAACGGAGACAAACGGAGTCACCTAGTGCAG | 6780 fluorescence intensity (a.u.) |
| GGCAACTAGAGACGCGACGGTTGGGCGTTACCAAGGAGCGCGGAGTCACCTAGTGCAG | 4180 fluorescence intensity (a.u.) |

At a glance, part of the list above.

| Sequence | binding signal |
| --- | --- |
| ACTTGCAGAGTTGCAGTCGCGTGCGTCACGCGGCGAGGTGCGGAGTCACCTAGTGCAG | 5960 fluorescence intensity (a.u.) |
| ACTCTATGTGCTAATGTCATACCATCGTCAACACGATAGCCGGAGTCACCTAGTGCAG | 3920 fluorescence intensity (a.u.) |

(further entries)

| Sequence | binding signal |
| --- | --- |
| TGGATCAACCGCCTAATCATCGTTGAGTAAGGCACTGCAACGGAGTCACCTAGTGCAG | 3980 fluorescence intensity (a.u.) |
| CCTTGCTCCGTCCTGGTTTTCCTGTGCGCTGGATCATCCGCGGAGTCACCTAGTGCAG | 3150 fluorescence intensity (a.u.) |
| ACAACCTGGCCCCACACCCAAACCCGGGCCCACGTGTCATCGGAGTCACCTAGTGCAG | 15500 fluorescence intensity (a.u.) |
| GATTGGCAGCGCACTCGGTCAGCGAGTTACCGATCTTACACGGAGTCACCTAGTGCAG | 6100 fluorescence intensity (a.u.) |
| GAGGACATGCATGTGCAAGGGGAGCAGGTGGGGTAAAATGCGGAGTCACCTAGTGCAG | 45500 fluorescence intensity (a.u.) |
| TTCTATACTACATTGAACTCCCCAAATTTAAGTATAGGCACGGAGTCACCTAGTGCAG | 3160 fluorescence intensity (a.u.) |
| AAAGAAAGCCCAAAGCAAGTAACTGCGCCATGACTAACACCGGAGTCACCTAGTGCAG | 3540 fluorescence intensity (a.u.) |
| ATTTCTGGTAGGACGGCCTGTGGCTTGCGTGTCTATGTGACGGAGTCACCTAGTGCAG | 4600 fluorescence intensity (a.u.) |
| TTAAATCAATAATTAAATATATTTTCATAATAAATTTGTGCGGAGTCACCTAGTGCAG | 31000 fluorescence intensity (a.u.) |
| TAACAAGCCTACCTACATGCATGCATCTATGCATATATATCGGAGTCACCTAGTGCAG | 3540 fluorescence intensity (a.u.) |
| ACTCCCCTCCCCGCCACGTCGCCATTCTTCCCGCTCCTGACGGAGTCACCTAGTGCAG | 11800 fluorescence intensity (a.u.) |
| ATGTTTTAGTCACCATCTATATTATGTTAATGGAGTTTTCCGGAGTCACCTAGTGCAG | 3340 fluorescence intensity (a.u.) |
| GCCGTGCACGTTCTACGGCTCGCCACTTCAGACTCCATCTCGGAGTCACCTAGTGCAG | 3200 fluorescence intensity (a.u.) |
| TTTTAAGGAAAATATATTATCAGCACCATATAGCTGGATGCGGAGTCACCTAGTGCAG | 4700 fluorescence intensity (a.u.) |
| TATTTGTGGACTGTTCCCAATGACATTTCTGGATGGCTTTCGGAGTCACCTAGTGCAG | 3250 fluorescence intensity (a.u.) |
| ATTATGTAGCATAGTGGCAGATCACTAATCTTTGTTGCTCCGGAGTCACCTAGTGCAG | 3370 fluorescence intensity (a.u.) |
| CAAAATACTCAAGCGGCGGCATTGTCATCTTCCTCCTCCCCGGAGTCACCTAGTGCAG | 3550 fluorescence intensity (a.u.) |
| GTAAGGCGTCCATGTGATGTCATTGTTGATGGGCAAGTGCCGGAGTCACCTAGTGCAG | 6430 fluorescence intensity (a.u.) |
| GTCGATTATTAAACTCTCCCTAATTGACCTTAGTGTTGTCCGGAGTCACCTAGTGCAG | 16900 fluorescence intensity (a.u.) |
| CCGTGATTGAGGCCCATCCAAATGTCTCTGGGCCATCCGCCGGAGTCACCTAGTGCAG | 17600 fluorescence intensity (a.u.) |
| GCTTGCCGGCGCTCTACGAGGAGGCGGAAAGGCTCGTGGGCGGAGTCACCTAGTGCAG | 3470 fluorescence intensity (a.u.) |
| TTCAATCCTAGCGCCACGTCAACATCACATATTAGGTCACCGGAGTCACCTAGTGCAG | 19600 fluorescence intensity (a.u.) |
| CAGCCTGAACCGTAAACAAATGGCACCCTAAATGACACATCGGAGTCACCTAGTGCAG | 3510 fluorescence intensity (a.u.) |
| TTAATTTGTTTTCACGTATGGTTGTGTTGCCCGCTTGGAACGGAGTCACCTAGTGCAG | 6280 fluorescence intensity (a.u.) |
| TGTGTTTTGCGGTTCTCTTGCCTCTGACTCTGAGACTGGACGGAGTCACCTAGTGCAG | 3780 fluorescence intensity (a.u.) |
| GAAACACCGAGCACGATGCCACCGTGCGCGTGTGCCGTGCCGGAGTCACCTAGTGCAG | 3160 fluorescence intensity (a.u.) |
| ACACACATCCGTTGGTTGGTTTGAATCCTTGCATGTGCATCGGAGTCACCTAGTGCAG | 22300 fluorescence intensity (a.u.) |

Quoted at random: 2 entries already listed, in no set order.

| Sequence | binding signal |
| --- | --- |
| ACTTGCAGAGTTGCAGTCGCGTGCGTCACGCGGCGAGGTGCGGAGTCACCTAGTGCAG | 5960 fluorescence intensity (a.u.) |
| TTCAATCCTAGCGCCACGTCAACATCACATATTAGGTCACCGGAGTCACCTAGTGCAG | 19600 fluorescence intensity (a.u.) |
